Data as given in PubChem BioAssay AID1159579 (Peter MacCallum Cancer Centre, 2015).
Purpose: 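Find genes whose silencing alters migration of lymphatic endothelial cells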 (follow-up of hits). Cell system: human dermal lymphatic endothelial cells. Reagents: single siRNA against human genes, 25 nM. Read-out: 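High content images of wound closure area and cell nuclei counts, each the average of two wells, expressed against mock transfection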. Direction: migration relative to mock: higher = more migration into the scratch; mean nuclei count: higher = more cells remaining. Hit rule: 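Called active when the migration ratio is 0.6 or lower (impaired) or 1.3 or higher (accelerated), but inactive whenever the mean nuclei count falls under 3300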. Calls: active = migration changed (impaired or accelerated); inactive = no migration change, or too few cells.
Here is a random part of about 2,000 reagents tested. 549 of all reagents (27%) count as active. 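Some migration ratios are negative; siRNAs with too few cells are inactive whatever their migration ratio.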 Entries without a mark were called inactive. Reagents against one gene are numbered here. Not stated in the record: the time to read-out.

| Gene | siRNA no. | migration relative to mock | migration and cell number class | mean nuclei count |
| --- | --- | --- | --- | --- |
| CT47A2 | 1 | 1.04 | no change in migration or cell number | 6489 |
| CT47A2 | 2 | 0.6 (active) | migration reduced | 5386 |
| CT47A2 | 3 | 0.65 | no change in migration or cell number | 5598 |
| CT47A2 | 4 | 0.88 | no change in migration or cell number | 5751 |
| CHST5 | 1 | 0.61 | no change in migration or cell number | 5120 |
| CHST5 | 2 | 0.46 (active) | migration reduced | 5460 |
| CHST5 | 3 | 0.86 | no change in migration or cell number | 6156 |
| CHST5 | 4 | 0.37 (active) | migration reduced | 5226 |
| STAU1 | 1 | 0.6 (active) | migration reduced | 6847 |
| STAU1 | 2 | 1.03 | no change in migration or cell number | 6136 |
| STAU1 | 3 | 0.9 | no change in migration or cell number | 4824 |
| STAU1 | 4 | 1.03 | no change in migration or cell number | 4688 |

Entries listed so far whose gene name starts with S or s (4):
| Gene | siRNA no. | migration relative to mock | migration and cell number class | mean nuclei count |
| --- | --- | --- | --- | --- |
| STAU1 | 1 | 0.6 (active) | migration reduced | 6847 |
| STAU1 | 2 | 1.03 | no change in migration or cell number | 6136 |
| STAU1 | 3 | 0.9 | no change in migration or cell number | 4824 |
| STAU1 | 4 | 1.03 | no change in migration or cell number | 4688 |

The listing continues:
| Gene | siRNA no. | migration relative to mock | migration and cell number class | mean nuclei count |
| --- | --- | --- | --- | --- |
| CLCN7 | 1 | 0.11 (active) | migration reduced | 3886 |
| CLCN7 | 2 | 0.8 | no change in migration or cell number | 6198 |
| CLCN7 | 3 | 0.64 | no change in migration or cell number | 5266 |
| CLCN7 | 4 | 0.58 (active) | migration reduced | 4663 |
| PGAM5 | 1 | 0.82 | no change in migration or cell number | 6424 |
| PGAM5 | 2 | 0.74 | no change in migration or cell number | 6654 |
| PGAM5 | 3 | 0.99 | no change in migration or cell number | 7517 |
| PGAM5 | 4 | 0.92 | no change in migration or cell number | 7001 |
| LSR | 1 | 0.26 (active) | migration reduced | 5458 |
| LSR | 2 | 0.72 | no change in migration or cell number | 5800 |
| LSR | 3 | 0.63 | no change in migration or cell number | 5091 |
| LSR | 4 | 0.79 | no change in migration or cell number | 5944 |
| MPP3 | 1 | 0.9 | no change in migration or cell number | 6856 |
| MPP3 | 2 | 0.54 (active) | migration reduced | 4854 |
| MPP3 | 3 | 0.38 | too few cells; migration not scored | 2962 |
| MPP3 | 4 | 0.54 (active) | migration reduced | 4406 |
